Our source for the binding values is paper doi:10.1101/2022.11.15.516651.

The chains behind the UniProt entries cited, without tags or fusion partners. Where a name states a change or a piece, a line headed by the entry shows the natural chain unless it says otherwise. A line that says so, or that is headed by a name, gives the form on record, which may keep a tag or linker. Residues count along the entry.
FLAG-SLC3A2 WTseq (P08195, residues 66-630): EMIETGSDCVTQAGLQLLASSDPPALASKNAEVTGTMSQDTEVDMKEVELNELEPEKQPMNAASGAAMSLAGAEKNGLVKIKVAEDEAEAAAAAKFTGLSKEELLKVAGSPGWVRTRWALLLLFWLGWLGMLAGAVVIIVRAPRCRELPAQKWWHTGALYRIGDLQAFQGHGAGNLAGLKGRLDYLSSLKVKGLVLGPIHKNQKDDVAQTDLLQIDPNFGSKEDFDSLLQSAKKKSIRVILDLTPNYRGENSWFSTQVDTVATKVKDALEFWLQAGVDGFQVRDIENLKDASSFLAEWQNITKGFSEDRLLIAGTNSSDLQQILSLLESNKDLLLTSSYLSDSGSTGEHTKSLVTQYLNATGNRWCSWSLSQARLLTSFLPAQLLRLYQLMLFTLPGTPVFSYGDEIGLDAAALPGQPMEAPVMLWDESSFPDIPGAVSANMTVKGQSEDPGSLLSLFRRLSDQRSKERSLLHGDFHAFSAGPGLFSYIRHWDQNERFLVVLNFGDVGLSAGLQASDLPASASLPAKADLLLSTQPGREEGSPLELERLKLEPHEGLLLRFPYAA
FLAG-SLC3A2 A273N (P08195, form named): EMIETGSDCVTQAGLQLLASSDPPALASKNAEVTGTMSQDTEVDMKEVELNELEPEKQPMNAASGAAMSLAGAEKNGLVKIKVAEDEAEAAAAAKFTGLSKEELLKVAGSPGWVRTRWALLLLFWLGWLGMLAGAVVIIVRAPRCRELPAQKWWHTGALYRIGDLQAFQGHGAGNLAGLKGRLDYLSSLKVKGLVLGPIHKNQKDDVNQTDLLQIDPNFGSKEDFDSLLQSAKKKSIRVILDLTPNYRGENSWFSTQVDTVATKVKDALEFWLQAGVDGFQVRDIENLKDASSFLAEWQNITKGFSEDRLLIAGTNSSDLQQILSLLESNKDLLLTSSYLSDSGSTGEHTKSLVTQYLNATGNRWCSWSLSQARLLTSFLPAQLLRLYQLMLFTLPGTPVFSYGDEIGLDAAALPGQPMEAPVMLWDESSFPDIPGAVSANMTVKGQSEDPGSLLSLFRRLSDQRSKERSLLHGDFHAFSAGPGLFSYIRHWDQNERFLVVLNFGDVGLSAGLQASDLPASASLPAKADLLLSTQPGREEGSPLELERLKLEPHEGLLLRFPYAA
UniProt P11142: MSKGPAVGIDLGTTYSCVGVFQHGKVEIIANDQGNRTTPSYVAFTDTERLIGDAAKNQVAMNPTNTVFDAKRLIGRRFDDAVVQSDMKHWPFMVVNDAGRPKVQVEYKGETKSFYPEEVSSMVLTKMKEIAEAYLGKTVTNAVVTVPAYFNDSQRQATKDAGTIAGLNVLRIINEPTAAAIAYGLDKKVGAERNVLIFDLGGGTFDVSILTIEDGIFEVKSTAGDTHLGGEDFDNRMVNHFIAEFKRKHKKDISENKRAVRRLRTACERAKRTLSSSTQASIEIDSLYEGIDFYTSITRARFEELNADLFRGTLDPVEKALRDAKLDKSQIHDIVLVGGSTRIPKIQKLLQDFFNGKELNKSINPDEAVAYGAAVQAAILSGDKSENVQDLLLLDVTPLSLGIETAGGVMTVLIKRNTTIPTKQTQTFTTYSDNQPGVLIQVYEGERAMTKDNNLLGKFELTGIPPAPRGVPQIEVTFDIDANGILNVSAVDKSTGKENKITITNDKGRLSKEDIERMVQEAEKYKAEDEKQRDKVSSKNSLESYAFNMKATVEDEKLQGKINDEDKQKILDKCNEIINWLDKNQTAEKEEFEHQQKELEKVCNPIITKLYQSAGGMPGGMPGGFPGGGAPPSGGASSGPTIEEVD
UniProt P27824, residues 21-592: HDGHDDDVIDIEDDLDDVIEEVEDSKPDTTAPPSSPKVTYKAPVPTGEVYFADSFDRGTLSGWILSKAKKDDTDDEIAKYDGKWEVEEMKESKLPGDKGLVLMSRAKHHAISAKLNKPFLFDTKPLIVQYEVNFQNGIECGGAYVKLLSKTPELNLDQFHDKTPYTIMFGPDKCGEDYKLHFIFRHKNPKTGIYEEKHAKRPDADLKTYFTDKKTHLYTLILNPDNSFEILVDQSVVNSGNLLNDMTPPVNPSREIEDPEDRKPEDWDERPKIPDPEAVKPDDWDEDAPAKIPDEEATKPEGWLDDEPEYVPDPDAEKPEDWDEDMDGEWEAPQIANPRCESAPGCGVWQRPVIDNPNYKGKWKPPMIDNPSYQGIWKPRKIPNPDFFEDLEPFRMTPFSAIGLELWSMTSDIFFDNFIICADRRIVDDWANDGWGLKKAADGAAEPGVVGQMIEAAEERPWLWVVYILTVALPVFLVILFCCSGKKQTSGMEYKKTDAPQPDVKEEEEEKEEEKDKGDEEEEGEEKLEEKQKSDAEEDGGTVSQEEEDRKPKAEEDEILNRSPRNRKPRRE
UniProt Q9H9S3: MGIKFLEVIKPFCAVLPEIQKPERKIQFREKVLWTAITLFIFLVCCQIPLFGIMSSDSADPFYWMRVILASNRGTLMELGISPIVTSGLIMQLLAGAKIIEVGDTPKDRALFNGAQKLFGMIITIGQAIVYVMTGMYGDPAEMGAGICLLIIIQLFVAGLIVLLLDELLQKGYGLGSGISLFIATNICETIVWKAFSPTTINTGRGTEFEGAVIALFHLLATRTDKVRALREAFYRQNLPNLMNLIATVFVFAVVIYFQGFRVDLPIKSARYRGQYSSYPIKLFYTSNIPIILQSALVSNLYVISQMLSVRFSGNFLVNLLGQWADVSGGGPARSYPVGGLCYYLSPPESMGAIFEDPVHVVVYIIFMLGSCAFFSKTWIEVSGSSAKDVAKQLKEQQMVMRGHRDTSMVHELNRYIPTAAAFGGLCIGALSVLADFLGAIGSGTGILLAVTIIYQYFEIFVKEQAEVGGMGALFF
UniProt P30825: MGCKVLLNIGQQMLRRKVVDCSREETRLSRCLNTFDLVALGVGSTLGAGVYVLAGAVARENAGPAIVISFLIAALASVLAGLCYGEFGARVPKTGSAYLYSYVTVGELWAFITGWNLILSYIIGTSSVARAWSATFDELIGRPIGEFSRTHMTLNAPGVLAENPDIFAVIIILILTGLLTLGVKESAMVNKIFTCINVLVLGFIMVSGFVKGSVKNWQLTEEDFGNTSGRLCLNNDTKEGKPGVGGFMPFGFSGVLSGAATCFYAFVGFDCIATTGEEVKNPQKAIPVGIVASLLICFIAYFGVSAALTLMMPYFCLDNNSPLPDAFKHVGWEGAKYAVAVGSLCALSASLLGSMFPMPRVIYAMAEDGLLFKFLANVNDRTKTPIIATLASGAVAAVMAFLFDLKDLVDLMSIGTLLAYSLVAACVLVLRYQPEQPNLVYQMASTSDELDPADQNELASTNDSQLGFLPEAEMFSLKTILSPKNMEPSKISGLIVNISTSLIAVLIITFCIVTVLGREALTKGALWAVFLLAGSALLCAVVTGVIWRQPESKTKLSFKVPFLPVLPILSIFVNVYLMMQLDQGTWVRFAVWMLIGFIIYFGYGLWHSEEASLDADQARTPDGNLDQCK
UniProt P08238: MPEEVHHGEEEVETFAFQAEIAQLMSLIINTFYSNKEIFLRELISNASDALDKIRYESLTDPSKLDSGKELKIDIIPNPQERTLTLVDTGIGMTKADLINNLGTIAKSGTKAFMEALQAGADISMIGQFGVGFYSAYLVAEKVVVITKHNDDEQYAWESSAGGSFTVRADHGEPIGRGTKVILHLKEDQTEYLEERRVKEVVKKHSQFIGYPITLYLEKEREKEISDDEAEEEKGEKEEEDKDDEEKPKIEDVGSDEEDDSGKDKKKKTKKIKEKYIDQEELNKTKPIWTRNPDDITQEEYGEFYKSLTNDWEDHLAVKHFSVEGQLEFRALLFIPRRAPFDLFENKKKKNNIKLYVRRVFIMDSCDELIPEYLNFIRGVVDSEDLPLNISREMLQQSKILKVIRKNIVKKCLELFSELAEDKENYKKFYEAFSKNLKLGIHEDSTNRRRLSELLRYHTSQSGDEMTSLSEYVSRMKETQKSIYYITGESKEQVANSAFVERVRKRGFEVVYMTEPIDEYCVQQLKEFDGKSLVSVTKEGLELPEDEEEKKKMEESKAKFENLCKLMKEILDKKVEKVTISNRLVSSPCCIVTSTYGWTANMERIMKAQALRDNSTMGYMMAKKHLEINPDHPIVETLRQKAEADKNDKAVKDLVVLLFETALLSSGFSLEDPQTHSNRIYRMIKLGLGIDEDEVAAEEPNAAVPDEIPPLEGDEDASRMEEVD
UniProt P04792: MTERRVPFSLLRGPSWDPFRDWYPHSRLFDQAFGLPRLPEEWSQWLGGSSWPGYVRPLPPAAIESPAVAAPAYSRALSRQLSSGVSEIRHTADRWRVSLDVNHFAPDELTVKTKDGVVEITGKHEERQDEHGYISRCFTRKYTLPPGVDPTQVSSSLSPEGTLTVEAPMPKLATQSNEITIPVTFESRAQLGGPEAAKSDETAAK
UniProt P11021, residues 19-654: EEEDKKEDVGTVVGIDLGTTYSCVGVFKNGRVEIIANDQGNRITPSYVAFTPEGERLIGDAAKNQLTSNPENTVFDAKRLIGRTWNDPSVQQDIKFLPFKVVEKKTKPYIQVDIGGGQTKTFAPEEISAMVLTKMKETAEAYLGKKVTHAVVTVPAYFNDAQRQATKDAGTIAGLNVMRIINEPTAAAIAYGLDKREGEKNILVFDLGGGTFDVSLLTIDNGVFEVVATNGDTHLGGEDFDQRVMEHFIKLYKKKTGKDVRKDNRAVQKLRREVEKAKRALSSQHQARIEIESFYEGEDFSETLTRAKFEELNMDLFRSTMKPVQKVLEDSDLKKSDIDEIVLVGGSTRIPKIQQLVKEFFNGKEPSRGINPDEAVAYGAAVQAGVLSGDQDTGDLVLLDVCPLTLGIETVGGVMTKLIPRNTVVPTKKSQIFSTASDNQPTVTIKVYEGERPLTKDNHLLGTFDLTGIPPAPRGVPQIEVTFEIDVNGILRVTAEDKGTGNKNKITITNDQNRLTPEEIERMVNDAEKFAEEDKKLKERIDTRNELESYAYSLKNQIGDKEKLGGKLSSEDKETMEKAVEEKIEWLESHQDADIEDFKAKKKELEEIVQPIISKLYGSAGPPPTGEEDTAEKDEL
UniProt P16070, residues 21-742: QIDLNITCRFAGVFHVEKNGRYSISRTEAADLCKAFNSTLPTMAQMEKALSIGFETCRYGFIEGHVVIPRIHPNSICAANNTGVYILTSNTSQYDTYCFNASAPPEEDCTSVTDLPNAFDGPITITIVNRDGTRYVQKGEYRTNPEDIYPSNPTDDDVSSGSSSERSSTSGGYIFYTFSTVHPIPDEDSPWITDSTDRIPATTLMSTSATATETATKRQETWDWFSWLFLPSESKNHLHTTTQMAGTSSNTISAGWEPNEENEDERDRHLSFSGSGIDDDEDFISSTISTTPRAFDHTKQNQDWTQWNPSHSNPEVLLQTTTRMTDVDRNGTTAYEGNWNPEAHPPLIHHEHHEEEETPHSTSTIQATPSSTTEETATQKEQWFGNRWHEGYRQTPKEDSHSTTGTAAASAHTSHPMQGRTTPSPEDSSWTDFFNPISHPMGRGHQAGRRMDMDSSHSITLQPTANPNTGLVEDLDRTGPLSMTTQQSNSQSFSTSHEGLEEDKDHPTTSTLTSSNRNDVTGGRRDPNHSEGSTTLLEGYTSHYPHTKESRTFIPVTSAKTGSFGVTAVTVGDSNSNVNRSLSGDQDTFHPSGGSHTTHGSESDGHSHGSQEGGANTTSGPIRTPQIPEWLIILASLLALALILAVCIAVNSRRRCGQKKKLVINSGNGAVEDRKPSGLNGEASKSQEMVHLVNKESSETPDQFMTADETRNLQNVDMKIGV

Results are given in words; binding and its absence hold for the method and conditions named. In cells and extracts the contact can be indirect. These calls come from enrichment with a bait or labelling near it, and not all partners need be listed.

Experiment [1] concerns the target FLAG-SLC3A2 A273N (human) (UniProt P08195). As to the kind of experiment: affinity purification with mass spectrometry.
In experiment [2] the target is FLAG-SLC3A2 WTseq (human) (UniProt P08195). Kind of experiment: affinity purification with mass spectrometry.

For HSPA8 (from UniProt P11142 1-646), the binding result in experiment [1] and in experiment [2] was “binds” in each case.

Regarding CANX (from UniProt P27824 21-592), the binding entry in experiment [1] and in experiment [2] was “binds” throughout.

As to SEC61A2 (from UniProt Q9H9S3 1-476), the binding result in experiment [1] and in experiment [2] was “binds” throughout.

For the substance “Arg/Lys/Ornithine high-affinity permease SLC7A1 (from UniProt P30825 1-629)”, the binding entry in experiment [2] is “binds”.

Take HSP90AB1 (from UniProt P08238 1-724): the binding result in experiment [1] and in experiment [2] was “binds” throughout.

Turning to HSPB1 (from UniProt P04792 1-205), the binding result in experiment [1] and in experiment [2] was “binds” in each case.

Regarding BSG (from UniProt P35613-2), the binding result in experiment [2] was “binds”.

As to HSPA5 (from UniProt P11021 19-654), the binding entry in experiment [1] and in experiment [2] was “binds” throughout.

Turning to CD44 (from UniProt P16070 21-742), the binding entry in experiment [2] is recorded as “binds”.
